{"sequences": {"note": "Sequences of proteins named here, by UniProt entry; tags and fusion partners are left off. A change or cut given only in a name is not applied to a line headed by its entry.", "UniProt P59222": "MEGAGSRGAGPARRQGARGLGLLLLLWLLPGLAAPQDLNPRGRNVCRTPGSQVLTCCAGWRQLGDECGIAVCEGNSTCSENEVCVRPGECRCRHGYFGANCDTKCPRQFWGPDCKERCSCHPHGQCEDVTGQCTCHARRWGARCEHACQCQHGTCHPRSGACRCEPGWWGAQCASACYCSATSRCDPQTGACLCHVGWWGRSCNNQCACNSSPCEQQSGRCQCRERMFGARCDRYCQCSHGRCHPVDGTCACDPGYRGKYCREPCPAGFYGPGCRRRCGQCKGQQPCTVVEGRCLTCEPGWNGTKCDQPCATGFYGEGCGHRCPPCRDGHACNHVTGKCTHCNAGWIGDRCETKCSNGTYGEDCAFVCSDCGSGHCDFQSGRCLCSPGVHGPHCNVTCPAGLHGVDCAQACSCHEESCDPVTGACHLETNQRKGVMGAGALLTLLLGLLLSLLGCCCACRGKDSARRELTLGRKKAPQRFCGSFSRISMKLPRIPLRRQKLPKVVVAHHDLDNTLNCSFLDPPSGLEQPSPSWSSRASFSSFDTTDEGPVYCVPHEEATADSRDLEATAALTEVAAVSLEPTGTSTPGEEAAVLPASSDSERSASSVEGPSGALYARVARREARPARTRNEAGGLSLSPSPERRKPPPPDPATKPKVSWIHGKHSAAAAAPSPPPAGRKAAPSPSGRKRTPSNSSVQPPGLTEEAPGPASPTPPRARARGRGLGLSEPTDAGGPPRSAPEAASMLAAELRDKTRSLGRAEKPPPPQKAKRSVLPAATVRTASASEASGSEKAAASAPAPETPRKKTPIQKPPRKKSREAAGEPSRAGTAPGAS", "UniProt P56671": "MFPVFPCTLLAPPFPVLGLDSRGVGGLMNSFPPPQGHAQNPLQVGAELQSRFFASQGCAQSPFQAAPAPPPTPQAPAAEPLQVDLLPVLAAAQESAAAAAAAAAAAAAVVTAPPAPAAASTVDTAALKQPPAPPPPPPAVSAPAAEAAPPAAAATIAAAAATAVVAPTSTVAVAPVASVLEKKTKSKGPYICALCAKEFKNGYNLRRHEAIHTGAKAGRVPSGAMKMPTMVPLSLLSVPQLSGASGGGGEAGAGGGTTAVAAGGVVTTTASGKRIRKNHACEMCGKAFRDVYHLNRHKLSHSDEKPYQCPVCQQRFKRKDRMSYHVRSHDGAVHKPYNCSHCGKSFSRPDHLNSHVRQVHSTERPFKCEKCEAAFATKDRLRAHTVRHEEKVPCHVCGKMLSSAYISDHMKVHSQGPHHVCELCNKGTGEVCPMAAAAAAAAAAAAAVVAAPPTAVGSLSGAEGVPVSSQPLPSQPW", "UniProt P63044, whole entry": "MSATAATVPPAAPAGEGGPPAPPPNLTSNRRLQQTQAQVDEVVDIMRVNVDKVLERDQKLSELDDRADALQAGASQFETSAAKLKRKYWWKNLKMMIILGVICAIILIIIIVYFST", "UniProt P55937": "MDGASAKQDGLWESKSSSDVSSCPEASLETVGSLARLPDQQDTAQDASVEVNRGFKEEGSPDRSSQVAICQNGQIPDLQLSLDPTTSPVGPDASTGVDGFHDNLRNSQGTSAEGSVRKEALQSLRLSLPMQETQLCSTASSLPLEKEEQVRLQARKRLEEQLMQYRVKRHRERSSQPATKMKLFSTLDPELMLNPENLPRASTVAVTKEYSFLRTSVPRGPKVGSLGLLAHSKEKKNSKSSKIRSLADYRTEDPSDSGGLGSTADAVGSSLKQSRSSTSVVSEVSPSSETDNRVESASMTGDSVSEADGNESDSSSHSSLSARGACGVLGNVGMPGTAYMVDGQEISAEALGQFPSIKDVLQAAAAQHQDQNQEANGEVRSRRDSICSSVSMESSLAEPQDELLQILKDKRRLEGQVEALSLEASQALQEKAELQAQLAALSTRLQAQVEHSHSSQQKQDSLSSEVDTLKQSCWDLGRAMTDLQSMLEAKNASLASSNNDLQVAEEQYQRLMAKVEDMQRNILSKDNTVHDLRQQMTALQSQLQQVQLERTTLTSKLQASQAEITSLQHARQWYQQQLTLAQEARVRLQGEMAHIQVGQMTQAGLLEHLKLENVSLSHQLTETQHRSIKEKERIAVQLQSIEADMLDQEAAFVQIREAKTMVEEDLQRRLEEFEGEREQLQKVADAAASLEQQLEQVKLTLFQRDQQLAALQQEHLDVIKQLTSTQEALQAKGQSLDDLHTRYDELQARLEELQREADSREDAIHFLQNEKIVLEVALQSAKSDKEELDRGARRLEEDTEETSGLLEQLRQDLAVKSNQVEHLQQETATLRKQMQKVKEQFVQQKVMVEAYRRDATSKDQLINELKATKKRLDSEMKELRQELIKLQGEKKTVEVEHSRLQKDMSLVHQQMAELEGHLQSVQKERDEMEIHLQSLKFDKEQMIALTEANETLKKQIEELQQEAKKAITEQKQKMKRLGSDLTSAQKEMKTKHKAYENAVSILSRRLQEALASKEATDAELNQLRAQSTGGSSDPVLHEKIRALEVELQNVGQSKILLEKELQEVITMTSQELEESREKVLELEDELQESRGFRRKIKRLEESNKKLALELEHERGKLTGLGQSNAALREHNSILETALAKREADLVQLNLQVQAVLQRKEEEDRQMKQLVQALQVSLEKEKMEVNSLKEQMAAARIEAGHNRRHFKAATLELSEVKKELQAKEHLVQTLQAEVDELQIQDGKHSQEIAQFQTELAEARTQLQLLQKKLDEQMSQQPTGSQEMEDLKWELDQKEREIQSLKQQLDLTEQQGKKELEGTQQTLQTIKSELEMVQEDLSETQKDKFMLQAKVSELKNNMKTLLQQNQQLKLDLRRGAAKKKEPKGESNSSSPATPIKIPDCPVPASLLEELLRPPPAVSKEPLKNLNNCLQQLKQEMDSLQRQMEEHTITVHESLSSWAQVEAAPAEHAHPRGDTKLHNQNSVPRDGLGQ", "UniProt P60824": "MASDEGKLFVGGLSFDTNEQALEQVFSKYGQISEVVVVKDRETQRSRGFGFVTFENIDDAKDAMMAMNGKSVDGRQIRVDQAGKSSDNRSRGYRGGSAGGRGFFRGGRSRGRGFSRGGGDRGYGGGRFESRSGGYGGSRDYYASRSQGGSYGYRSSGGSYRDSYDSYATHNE", "UniProt P63094, whole entry": "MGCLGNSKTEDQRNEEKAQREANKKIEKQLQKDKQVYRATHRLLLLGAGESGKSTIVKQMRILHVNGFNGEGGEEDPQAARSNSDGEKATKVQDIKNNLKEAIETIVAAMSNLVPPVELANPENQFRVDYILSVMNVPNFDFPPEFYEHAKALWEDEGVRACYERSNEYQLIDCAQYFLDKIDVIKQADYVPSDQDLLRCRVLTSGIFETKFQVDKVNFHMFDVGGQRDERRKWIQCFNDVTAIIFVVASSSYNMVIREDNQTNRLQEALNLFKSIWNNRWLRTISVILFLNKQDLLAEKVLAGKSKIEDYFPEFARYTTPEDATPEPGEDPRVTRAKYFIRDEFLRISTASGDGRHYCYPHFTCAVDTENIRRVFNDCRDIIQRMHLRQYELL", "UniProt P59048, whole entry": "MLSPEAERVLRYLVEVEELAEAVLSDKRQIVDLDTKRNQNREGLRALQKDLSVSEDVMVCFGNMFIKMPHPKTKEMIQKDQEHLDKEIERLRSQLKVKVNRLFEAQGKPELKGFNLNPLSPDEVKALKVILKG", "UniProt P54843": "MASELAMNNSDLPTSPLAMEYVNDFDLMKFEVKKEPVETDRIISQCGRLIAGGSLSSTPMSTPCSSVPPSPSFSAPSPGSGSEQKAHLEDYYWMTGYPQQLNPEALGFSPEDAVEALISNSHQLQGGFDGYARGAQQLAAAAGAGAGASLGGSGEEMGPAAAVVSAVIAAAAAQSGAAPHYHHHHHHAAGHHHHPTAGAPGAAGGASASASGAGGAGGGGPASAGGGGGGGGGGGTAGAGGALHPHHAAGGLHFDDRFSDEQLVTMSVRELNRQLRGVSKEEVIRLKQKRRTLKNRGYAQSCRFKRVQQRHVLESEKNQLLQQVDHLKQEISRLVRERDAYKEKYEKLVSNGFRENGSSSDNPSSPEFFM", "UniProt P56212": "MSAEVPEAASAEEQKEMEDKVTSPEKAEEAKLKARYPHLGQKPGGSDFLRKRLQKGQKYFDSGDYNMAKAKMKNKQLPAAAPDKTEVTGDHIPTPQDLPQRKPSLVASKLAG", "UniProt P57016": "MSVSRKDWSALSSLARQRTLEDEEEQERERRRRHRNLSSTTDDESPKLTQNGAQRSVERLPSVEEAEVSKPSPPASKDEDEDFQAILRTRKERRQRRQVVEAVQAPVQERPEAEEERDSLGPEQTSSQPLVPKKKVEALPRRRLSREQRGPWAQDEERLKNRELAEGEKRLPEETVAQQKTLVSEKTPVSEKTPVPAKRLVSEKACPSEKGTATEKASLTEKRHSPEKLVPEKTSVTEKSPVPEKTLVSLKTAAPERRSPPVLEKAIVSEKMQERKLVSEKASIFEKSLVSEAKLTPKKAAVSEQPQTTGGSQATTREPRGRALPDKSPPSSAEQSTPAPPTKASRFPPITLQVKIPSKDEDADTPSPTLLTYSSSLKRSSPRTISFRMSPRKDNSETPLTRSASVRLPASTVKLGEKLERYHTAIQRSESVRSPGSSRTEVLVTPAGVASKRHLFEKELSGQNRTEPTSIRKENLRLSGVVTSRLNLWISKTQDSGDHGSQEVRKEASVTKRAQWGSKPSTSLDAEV", "UniProt P59242": "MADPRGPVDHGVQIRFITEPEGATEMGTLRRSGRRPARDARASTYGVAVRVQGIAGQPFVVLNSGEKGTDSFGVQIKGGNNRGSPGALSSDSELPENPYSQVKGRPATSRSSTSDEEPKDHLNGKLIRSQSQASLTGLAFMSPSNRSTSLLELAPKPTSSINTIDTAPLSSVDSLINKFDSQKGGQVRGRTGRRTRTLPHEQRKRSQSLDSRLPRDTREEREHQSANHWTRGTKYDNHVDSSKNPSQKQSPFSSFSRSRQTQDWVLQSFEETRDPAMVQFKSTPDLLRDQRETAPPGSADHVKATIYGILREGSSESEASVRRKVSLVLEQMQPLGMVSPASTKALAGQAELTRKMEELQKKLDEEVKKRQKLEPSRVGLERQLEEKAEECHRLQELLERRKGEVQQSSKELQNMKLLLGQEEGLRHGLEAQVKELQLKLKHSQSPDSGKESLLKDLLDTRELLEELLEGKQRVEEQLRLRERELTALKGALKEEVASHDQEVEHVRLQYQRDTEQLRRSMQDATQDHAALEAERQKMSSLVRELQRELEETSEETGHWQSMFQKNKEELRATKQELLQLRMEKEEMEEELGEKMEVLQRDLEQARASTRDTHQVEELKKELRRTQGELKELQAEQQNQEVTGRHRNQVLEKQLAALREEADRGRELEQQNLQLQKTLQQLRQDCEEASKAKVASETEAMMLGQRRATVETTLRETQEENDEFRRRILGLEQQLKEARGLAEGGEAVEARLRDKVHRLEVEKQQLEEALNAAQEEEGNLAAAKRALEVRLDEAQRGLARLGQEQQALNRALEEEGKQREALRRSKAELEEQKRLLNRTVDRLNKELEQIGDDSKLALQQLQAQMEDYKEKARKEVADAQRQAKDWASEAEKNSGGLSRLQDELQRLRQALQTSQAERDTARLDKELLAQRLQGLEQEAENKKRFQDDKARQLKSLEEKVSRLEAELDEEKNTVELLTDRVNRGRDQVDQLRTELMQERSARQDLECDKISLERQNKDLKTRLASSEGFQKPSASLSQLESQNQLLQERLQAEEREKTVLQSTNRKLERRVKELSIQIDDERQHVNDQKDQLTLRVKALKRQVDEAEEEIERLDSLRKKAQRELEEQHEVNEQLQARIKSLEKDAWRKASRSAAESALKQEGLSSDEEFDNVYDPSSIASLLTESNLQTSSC", "UniProt P62932": "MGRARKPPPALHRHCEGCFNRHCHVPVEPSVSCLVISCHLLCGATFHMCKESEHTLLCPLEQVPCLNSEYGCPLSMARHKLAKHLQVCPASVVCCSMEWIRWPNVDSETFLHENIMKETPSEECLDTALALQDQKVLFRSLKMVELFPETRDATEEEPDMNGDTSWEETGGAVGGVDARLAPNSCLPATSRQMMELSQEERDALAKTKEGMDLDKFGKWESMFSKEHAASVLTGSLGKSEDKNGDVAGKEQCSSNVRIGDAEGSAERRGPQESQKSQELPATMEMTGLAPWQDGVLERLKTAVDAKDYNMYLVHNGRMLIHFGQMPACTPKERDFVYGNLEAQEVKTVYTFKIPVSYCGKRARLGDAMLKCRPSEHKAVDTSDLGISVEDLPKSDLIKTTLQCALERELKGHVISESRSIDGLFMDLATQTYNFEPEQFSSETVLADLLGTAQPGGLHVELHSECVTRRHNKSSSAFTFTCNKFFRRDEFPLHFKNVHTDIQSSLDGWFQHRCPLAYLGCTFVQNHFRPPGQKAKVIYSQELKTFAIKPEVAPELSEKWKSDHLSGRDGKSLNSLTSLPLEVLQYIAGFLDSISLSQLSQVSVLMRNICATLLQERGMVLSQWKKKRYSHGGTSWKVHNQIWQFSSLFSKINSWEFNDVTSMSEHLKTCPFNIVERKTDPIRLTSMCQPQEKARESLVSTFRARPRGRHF"}, "source": "the supplement of paper PMC12819154", "about": "“High-throughput peptide-centric local stability assay extends protein–ligand identification to membrane proteins, tissues and bacteria” (Nature Structural & Molecular Biology, 2025)", "note": "The other results are listed elsewhere or left out. Most values lie at the level of the controls, where differences are scatter."}
{"compound": "CN[C@@H]1C[C@H]2O[C@@](C)([C@@H]1OC)n1c3ccccc3c3c4c(c5c6ccccc6n2c5c31)C(=O)NC4 [staurosporine]", "experiment": "log2 fold change of tryptic peptide abundance, ligand vs vehicle (limited proteolysis) (log2 ratio); higher = more trypsin-susceptible (destabilized)", "details": "ligand concentration: 20 uM; sample: mouse liver crude lysate; replicate design: treated separately"}
{"target": "UniProt P59222 (peptide sequence: TPIQKPPR, peptide start residue: 806)", "log2 fold change": -0.278}
{"target": "UniProt P56671 (peptide sequence: SHDGAVHKPYNCSHCGK, peptide start residue: 328)", "log2 fold change": -0.561}
{"target": "UniProt P54822 (peptide sequence: FLEEEVRPLLKPYGNEMAVK, peptide start residue: 460)", "log2 fold change": -0.148}
{"target": "UniProt P56546 (peptide sequence: MALVDKHK, peptide start residue: 1)", "log2 fold change": -0.193}
{"target": "UniProt P59672 (peptide sequence: VQEEPSETK, peptide start residue: 918)", "log2 fold change": -0.266}
{"target": "UniProt P59178 (peptide sequence: LEVVDKTQVSR, peptide start residue: 329)", "log2 fold change": -0.604}
{"target": "UniProt P63044 (peptide sequence: RLQQTQAQVDEVVDIMR, peptide start residue: 31)", "log2 fold change": -0.136}
{"target": "UniProt P55937 (peptide sequence: RLEEFEGER, peptide start residue: 669)", "log2 fold change": -0.595}
{"target": "UniProt P62748 (peptide sequence: LSLEEFIK, peptide start residue: 164)", "log2 fold change": -0.18}
{"target": "UniProt P63017 (peptide sequence: MVNHFIAEFK, peptide start residue: 237)", "log2 fold change": 0.43}
{"target": "UniProt P61922 (peptide sequence: FWAHEHWGLDDPADVMTFSK, peptide start residue: 338)", "log2 fold change": -0.39}
{"target": "UniProt P60824 (peptide sequence: DAMMAMNGK, peptide start residue: 62)", "log2 fold change": 0.165}
{"target": "UniProt P63094 (peptide sequence: RVFNDCR, peptide start residue: 374)", "log2 fold change": -0.159}
{"target": "UniProt P63101 (peptide sequence: YLAEVAAGDDKK, peptide start residue: 128)", "log2 fold change": 0.106}
{"target": "UniProt P55194 (peptide sequence: LAAGASVLKR, peptide start residue: 313)", "log2 fold change": 0.39}
{"target": "UniProt P62631 (peptide sequence: NVSVKDIR, peptide start residue: 314)", "log2 fold change": -0.311}
{"target": "UniProt P54310 (peptide sequence: QATEFCVQR, peptide start residue: 738)", "log2 fold change": -0.382}
{"target": "UniProt P59759 (peptide sequence: TKDPPRYEEAIK, peptide start residue: 860)", "log2 fold change": -0.099}
{"target": "UniProt P59048 (peptide sequence: LFEAQGKPELK, peptide start residue: 102)", "log2 fold change": 0.169}
{"target": "UniProt P58281 (peptide sequence: EVLEDFAEDGEKKVK, peptide start residue: 912)", "log2 fold change": -0.183}
{"target": "UniProt P54775 (peptide sequence: GVLMYGPPGCGKTMLAK, peptide start residue: 201)", "log2 fold change": -0.304}
{"target": "UniProt P55302 (peptide sequence: NEPEMAAK, peptide start residue: 43)", "log2 fold change": -0.562}
{"target": "UniProt P55284 (peptide sequence: DTFTIETDPKR, peptide start residue: 302)", "log2 fold change": -0.896}
{"target": "UniProt P54843 (peptide sequence: GVSKEEVIR, peptide start residue: 277)", "log2 fold change": -0.159}
{"target": "UniProt P56212 (peptide sequence: YPHLGQKPGGSDFLR, peptide start residue: 36)", "log2 fold change": 0.0705}
{"target": "UniProt P58735 (peptide sequence: FTGPLYYANKDFFLR, peptide start residue: 547)", "log2 fold change": -0.283}
{"target": "UniProt P62046 (peptide sequence: DRELDIAMIEQLR, peptide start residue: 431)", "log2 fold change": -0.0805}
{"target": "UniProt P57016 (peptide sequence: KAAVSEQPQTTGGSQATTREPR, peptide start residue: 299)", "log2 fold change": -0.406}
{"target": "UniProt P59242 (peptide sequence: QLAALREEADR, peptide start residue: 653)", "log2 fold change": 0.515}
{"target": "UniProt P54731 (peptide sequence: HFGSVIAQTIR, peptide start residue: 430)", "log2 fold change": -0.29}
{"target": "UniProt P62932 (peptide sequence: KRYSHGGTSWK, peptide start residue: 626)", "log2 fold change": -0.0248}
